Data as given in PubChem BioAssay AID504793 (Drosophila RNAi Screening Center, 2011).

- Purpose: 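Whole-genome screen for parts of the DNA damage checkpoint at G2/M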 (primary screen)
- Cell system: Drosophila S2R+ cells
- Reagent: long dsRNA against Drosophila genes, about 0.25 µg dsRNA per well
- Timing: 4 days of dsRNA, then 4 hours of drug before read-out
- Conditions: doxorubicin 0.5 µM for 4 hours to cause double-strand breaks, in cells also given a low, harmless dose of dsRNA against nbs to sensitise the assay
- Measurement: 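Per-well count of mitotic cells stained for phospho-histone H3 after doxorubicin exposure, used as mitotic index; counts are raw and not normalised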
- Reading the numbers: mitotic cells: higher = more cells in mitosis, weaker G2 arrest
- Rule for the call: 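Genes are called active only when high mitotic counts were reproduced with independent dsRNAs and mitosis was checked for delay without damage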
- Calls: active = confirmed in follow-up tests; inactive = not confirmed
The deposit covers about 23,000 reagents; below is an unselected part of those that have a named target and a result. In the full data, 62 (0.27%) were called active. 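Calls come from follow-up tests whose scores are not deposited, so confirmed genes may have low counts here; counts are not normalised per plate.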 Raw values are not corrected between plates. Names joined by + are all predicted targets of the reagent.

no.	Gene	amplicon	mitotic cells, replicate 1	outcome
1	CG32755	DRSC18397	17	inactive
2	CG32755	DRSC27494	4	inactive
3	Prip	DRSC07044	10	inactive
4	Prip	DRSC26459	7	inactive
5	CG13074	DRSC09957	5	inactive
6	PIG-K	DRSC18496	9	inactive
7	Tango5	DRSC18023	7	inactive
8	Tango5	DRSC25500	7	inactive
9	Vmat	DRSC06961	3	inactive
10	Vmat	DRSC06962	6	inactive
11	Vmat	DRSC22223	16	inactive
12	Caf1-55	DRSC16596	2	inactive
13	lectin-37Da	DRSC03278	10	inactive
14	lectin-37Da	DRSC22729	14	inactive
15	CG8031	DRSC16364	4	inactive
16	Mos	DRSC07258	6	inactive
17	Acbp6	DRSC10217		inactive
18	CG30062	DRSC21737	7	inactive
19	CG12576	DRSC20621	8	inactive
20	CG12576	DRSC26254	9	inactive
21	CG10841	DRSC14271	6	inactive
22	CG10841	DRSC28142	4	inactive
23	CG6357	DRSC06979	4	inactive
24	CG11475	DRSC04113	5	inactive
25	CG11475	DRSC24420	26	inactive
26	Ras85D	DRSC16814	5	inactive
27	Ras85D	DRSC39132	8	inactive
28	Snm1	DRSC12130	4	inactive
29	fz	DRSC11348	1	inactive
30	fz	DRSC39155	6	inactive
31	CG5664	DRSC11782	16	inactive
32	CG11034	DRSC02121	7	inactive
33	CG11034	DRSC02122	3	inactive
34	CG7182	DRSC10780	2	inactive
35	CG7182	DRSC24776	6	inactive
36	spdi	DRSC18487	10	inactive
37	spdi	DRSC18488	9	inactive
38	CG32196	DRSC09548	10	inactive
39	Cog2	DRSC16987	5	inactive
40	tbrd-3	DRSC04295	7	inactive
41	tbrd-3	DRSC26310	4	inactive
42	Or19a	DRSC20684	4	inactive
43	mura	DRSC23145	17	inactive
44	mura	DRSC26645	4	inactive
45	CG34051	DRSC01739	8	inactive
46	CG12679	DRSC20493	11	inactive
47	CG12679	DRSC29589	9	inactive
48	CG42237	DRSC19891	13	inactive
49	CG10589	DRSC11629	5	inactive
50	NAT1	DRSC06854	6	inactive
51	NAT1	DRSC30053	3	inactive
52	JTBR	DRSC08667	4	inactive
53	CG8778	DRSC07264	6	inactive
54	Ugt49C1	DRSC04252	9	inactive
55	Ugt49C1	DRSC27301	5	inactive
56	PSMG1	DRSC12297	5	inactive
57	PSMG1	DRSC28532	4	inactive
58	CG17777	DRSC18137	8	inactive
59	CG11406	DRSC04010	5	inactive
60	CG11406	DRSC04108	4	inactive
61	ind	DRSC23095	17	inactive
62	Nepl3	DRSC02681	6	inactive
63	dpn	DRSC07605	7	inactive
64	dpn	DRSC28443	6	inactive
65	Vps39	DRSC16205	10	inactive
66	CG42254 (retired record)	DRSC06194	4	inactive
67	Vha36-2	DRSC06294	2	inactive
68	Vha36-2	DRSC29238	3	inactive
69	por	DRSC20362	9	inactive
70	por	DRSC29877	12	inactive
71	Sec5	DRSC00714	6	inactive
72	veil	DRSC06892	6	inactive
73	Hmgcr	DRSC16704	22	inactive
74	COX8	DRSC11814	9	inactive
75	COX8	DRSC28975	4	inactive
76	Elovl7	DRSC15452	4	inactive
77	Elovl7	DRSC21570	14	inactive
78	Elovl7	DRSC25259	4	inactive
79	Msr-110	DRSC11227	6	inactive
80	Msr-110	DRSC25246	8	inactive
81	Srp9	DRSC10973	4	inactive
82	CG30389	DRSC04077	3	inactive
83	CG30389	DRSC04452	9	inactive
84	CG30389	DRSC26370	10	inactive
85	crol	DRSC03514	6	inactive
86	crol	DRSC21348	13	inactive
87	crol	DRSC26800	7	inactive
88	Mettl4 + CG14907	DRSC26716	8	inactive
89	Vps50	DRSC06910	9	inactive
90	smp-30	DRSC17059	4	inactive
91	smp-30	DRSC26913	7	inactive
92	inaF-B + inaF-D + inaF-C + 1 more	DRSC20342	15	inactive
93	inaF-B + inaF-D + inaF-C + 1 more	DRSC28607	3	inactive
94	AGO2	DRSC10847	5	inactive
95	Hsp83	DRSC08664	5	inactive
96	Hsp83	DRSC25052	6	inactive
97	CG6978	DRSC18409	9	inactive
98	Ir75a	DRSC10188	7	inactive
99	Eb1	DRSC05016	6	inactive
100	CG18343	DRSC06726	7	inactive
101	CG9667	DRSC16535	5	inactive
102	CG9667	DRSC23667	11	inactive
103	CG32982	DRSC02677	8	inactive
104	CG32982	DRSC03269	4	inactive
105	CG32982	DRSC21912	6	inactive
106	RhoGAP1A	DRSC20649	5	inactive
107	RhoGAP1A	DRSC20651	10	inactive
108	Bx	DRSC23048	6	inactive
109	Bx	DRSC28506	7	inactive
110	Ir56d	DRSC06590	7	inactive
111	Ir56d	DRSC28383	4	inactive
112	pigeon	DRSC03565	4	inactive
113	CG9483	DRSC03226	2	inactive
114	CG9483	DRSC29929	24	inactive
115	PolZ2	DRSC12325	7	inactive
116	Polr1A	DRSC07535	9	inactive
117	CG1701	DRSC06641	1	inactive
118	mRpL14	DRSC18597	6	inactive
119	mRpL14	DRSC24034	6	inactive
120	CG9717	DRSC16543	4	inactive
121	Unr	DRSC10761	9	inactive
122	Unr	DRSC26920	8	inactive
123	rb	DRSC18826	4	inactive
124	rb	DRSC27940	10	inactive
125	Tbcd	DRSC00273	1	inactive
126	MED11	DRSC23091	21	inactive
127	MED11	DRSC25948	19	inactive
128	Drsl5	DRSC08159	7	inactive
129	CG12715	DRSC19492	13	inactive
130	CG4230	DRSC02740	7	inactive
131	Sara	DRSC04653	4	inactive
132	Fim	DRSC20243	9	inactive
133	goe	DRSC19345	12	inactive
134	goe	DRSC29879	8	inactive
135	AIMP1	DRSC07118	3	inactive
136	AIMP1	DRSC25922	4	inactive
137	NT5E-2	DRSC06893	4	inactive
138	CG14402	DRSC02386	4	inactive
139	CG9577	DRSC20693	13	inactive
140	CG9577	DRSC27691	10	inactive

Quoted from the entries so far for reference:
no.	Gene	amplicon	mitotic cells, replicate 1	outcome
119	mRpL14	DRSC24034	6	inactive
120	CG9717	DRSC16543	4	inactive
121	Unr	DRSC10761	9	inactive
122	Unr	DRSC26920	8	inactive
123	rb	DRSC18826	4	inactive
124	rb	DRSC27940	10	inactive
125	Tbcd	DRSC00273	1	inactive
126	MED11	DRSC23091	21	inactive
127	MED11	DRSC25948	19	inactive
128	Drsl5	DRSC08159	7	inactive
129	CG12715	DRSC19492	13	inactive
130	CG4230	DRSC02740	7	inactive
131	Sara	DRSC04653	4	inactive
132	Fim	DRSC20243	9	inactive
133	goe	DRSC19345	12	inactive
134	goe	DRSC29879	8	inactive
135	AIMP1	DRSC07118	3	inactive
136	AIMP1	DRSC25922	4	inactive
137	NT5E-2	DRSC06893	4	inactive
138	CG14402	DRSC02386	4	inactive
139	CG9577	DRSC20693	13	inactive
